# For at least one compound, name, drawing or mass did not settle the structure.
# How the values were obtained:
# CGN cells = experiment: ROS in CGN cells, dehydrorhodamine 123 and FACS; type: cell-based, rat; settings: rapamycin 20 hrs
# SHR-SP rats = experiment: middle cerebral artery (MCA) occlusion model of ischemic stroke; type: in vivo, rat
# WI-38 cells = experiment: growth and population doubling of WI-38 cells; type: cell-based, human; settings: 25 pM rapamycin
# Description: (A) WI-38 cells were treated with the indicated concentrations of rapamycin as in FIG. 7. The treatment started at passage 29. Cells entered senescence at passage 31. After 65-days in senescence, surviving cells were measured by MTT (3-(4,5-dimethylthiazol-2-yl)-2,5-diphenyltetrazolium bromide, a tetrazole) staining. The purple color of MTT generated by mitochondrial reductase was read in 570 nm by a microplate reader. The data is a representative of three independent duplica-experiments. (B) The effect of rapamycin on growth of WI-38 cells. Cells were cultured as in FIG. 7. Arrows indicate the time point when rapamycin was added. 25 pM rapamycin has little effect on growth rate, but increases the population doubling (PD) from 5.18 to 6.82. Population doublings were calculated using the following formula: PD=log(Nf/N0)/log 2, where Nf is the final cell number and N0 is the number of initially seeded cells. Data is a representative of two independent duplica-experiments. (C) The low doses of rapamycin increase protein levels of p53, p21 and pRB. WI-38 cells on the 20th day after the last split (senescence) were treated with rapamycin for 18 hrs. Cell lysates were then analyzed by Western blotting using antibodies specifically against p53, p21 or pRB.
# L40 cells = experiment: ROS by dehydrorhodamine 123 and FACS in L40 cells; type: cell-based, human; settings: rapamycin at low doses, two days
# Sprague-Dawley (SD) rats = experiment: myocardial infarction by coronary artery ligature; type: in vivo, rat
# mouse = settings: rapamycin at the therapeutic dose, mouse (Harrison 2009); cited from earlier work
# TFAM = TFAM mRNA by qRT-PCR; type: cell-based, human; settings: 50 pM rapamycin; data not shown
smiles,measurement,setting,value
CO[C@H]1C[C@@H]2CC[C@@H](C)[C@@](O)(O2)C(=O)C(=O)N2CCCC[C@H]2C(=O)O[C@H]([C@H](C)C[C@@H]2CC[C@@H](O)[C@H](OC)C2)CC(=O)[C@H](C)/C=C(\C)[C@@H](O)[C@@H](OC)C(=O)[C@H](C)C[C@H](C)/C=C/C=C/C=C/1C [rapamycin],ROS level of CGN cells in suspension,CGN cells,reduced the regular ROS level
same,infarction volume induced by MCA occlusion,"SHR-SP rats; rapamycin 10 mg/kg (so in the source), administrated 10 minutes after MCA occlusion, brains harvested 24 h after",significantly reduced the infarction volume
same,brain damage after MCA occlusion,"SHR-SP rats; rapamycin 0.3, 1, 3 and 10 μg/kg for 20 days prior to MCA occlusion",prevented the brain damage
same,cell growth of WI-38 cells,WI-38 cells,did not inhibit cell growth
same,ROS,L40 cells,reduced ROS
same,myocardial infarction size (fraction of total left ventricular weight),Sprague-Dawley (SD) rats; rapamycin 10 μg/kg/day for 3 days prior to MI,significantly reduced the myocardial infarction size
same,myocardial infarction size (fraction of total left ventricular weight),Sprague-Dawley (SD) rats; rapamycin 100 μg/kg/day for 3 days prior to MI,but not the higher dose
same,life-span extension,mouse,~10%
same,TFAM mRNA,TFAM,TFAM mRNA increase

# Reference: US9360471B2, “Anti-aging agents and methods to identify them” (priority 2009, dated 2016)
